PMC8384837
Changes are numbered by the printed parent chain. The list shows a part of the results. For some assays here: At the low end of the ranking the order means little.

Key:
Details in all cases: yeast three-hybrid, YBZ-1, SC-Leu-His + 0.5 mM 3-AT, 4 days
[1] = biological target: T1, PUM1 PUF domain R3-RAV C935R + R936A + Q939V (UniProt Q14671)
T1 sequence: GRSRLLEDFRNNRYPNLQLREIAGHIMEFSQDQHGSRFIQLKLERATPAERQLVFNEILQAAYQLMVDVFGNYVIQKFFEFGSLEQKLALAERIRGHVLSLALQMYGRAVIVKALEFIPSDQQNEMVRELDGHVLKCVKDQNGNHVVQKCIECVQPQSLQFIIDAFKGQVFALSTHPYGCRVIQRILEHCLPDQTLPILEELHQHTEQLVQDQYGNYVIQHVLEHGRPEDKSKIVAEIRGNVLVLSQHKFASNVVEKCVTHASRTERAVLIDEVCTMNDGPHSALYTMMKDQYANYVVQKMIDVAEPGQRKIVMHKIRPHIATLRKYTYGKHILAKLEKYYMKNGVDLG

[2] = biological target: T2, PUM1 PUF domain R3-RAW C935R + R936A + Q939W (UniProt Q14671)
T2 sequence: T1 sequence with V112W

[3] = biological target: T3, PUM1 PUF domain R3-RAY C935R + R936A + Q939Y (UniProt Q14671)
T3 sequence: T1 sequence with V112Y

[4] = biological target: T4, PUM1 PUF domain R3-RCA C935R + R936C + Q939A (UniProt Q14671)
T4 sequence: T1 sequence with A109C, V112A

[5] = biological target: T5, PUM1 PUF domain R3-RCD C935R + R936C + Q939D (UniProt Q14671)
T5 sequence: T1 sequence with A109C, V112D

[6] = biological target: T6, PUM1 PUF domain R3-RDR C935R + R936D + Q939R (UniProt Q14671)
T6 sequence: T1 sequence with A109D, V112R

[7] = biological target: T7, PUM1 PUF domain R3-RDS C935R + R936D + Q939S (UniProt Q14671)
T7 sequence: T1 sequence with A109D, V112S

[8] = biological target: T8, PUM1 PUF domain R3-RER C935R + R936E + Q939R (UniProt Q14671)
T8 sequence: T1 sequence with A109E, V112R

[9] = biological target: T9, PUM1 PUF domain R3-RGG C935R + R936G + Q939G (UniProt Q14671)
T9 sequence: T1 sequence with A109G, V112G

[10] = biological target: T10, PUM1 PUF domain R3-RGR C935R + R936G + Q939R (UniProt Q14671)
T10 sequence: T1 sequence with A109G, V112R

[11] = biological target: T11, PUM1 PUF domain R3-RIG C935R + R936I + Q939G (UniProt Q14671)
T11 sequence: T1 sequence with A109I, V112G

[12] = biological target: T12, PUM1 PUF domain R3-RIK C935R + R936I + Q939K (UniProt Q14671)
T12 sequence: T1 sequence with A109I, V112K

[13] = biological target: T13, PUM1 PUF domain R3-RIR C935R + R936I + Q939R (Homo sapiens) (UniProt Q14671)
T13 sequence: T1 sequence with A109I, V112R

[14] = biological target: T14, PUM1 PUF domain R3-RMR C935R + R936M + Q939R (UniProt Q14671)
T14 sequence: T1 sequence with A109M, V112R

[15] = biological target: T15, PUM1 PUF domain R3-RMW C935R + R936M + Q939W (UniProt Q14671)
T15 sequence: T1 sequence with A109M, V112W

[16] = biological target: T16, PUM1 PUF domain R3-RNE C935R + R936N + Q939E (UniProt Q14671)
T16 sequence: T1 sequence with A109N, V112E

[17] = biological target: T17, PUM1 PUF domain R3-RNG C935R + R936N + Q939G (UniProt Q14671)
T17 sequence: T1 sequence with A109N, V112G

[18] = biological target: T18, PUM1 PUF domain R3-RPA C935R + R936P + Q939A (UniProt Q14671)
T18 sequence: T1 sequence with A109P, V112A

[19] = biological target: T19, PUM1 PUF domain R3-RPG C935R + R936P + Q939G (UniProt Q14671)
T19 sequence: T1 sequence with A109P, V112G

[20] = biological target: T20, PUM1 PUF domain R3-RPR C935R + R936P + Q939R (UniProt Q14671)
T20 sequence: T1 sequence with A109P, V112R

[21] = biological target: T21, PUM1 PUF domain R3-RPS C935R + R936P + Q939S (UniProt Q14671)
T21 sequence: T1 sequence with A109P, V112S

[22] = biological target: T22, PUM1 PUF domain R3-RPV C935R + R936P + Q939V (UniProt Q14671)
T22 sequence: T1 sequence with A109P

[23] = biological target: T23, PUM1 PUF domain R3-RPW C935R + R936P + Q939W (UniProt Q14671)
T23 sequence: T1 sequence with A109P, V112W

[24] = biological target: T24, PUM1 PUF domain R3-RQE C935R + R936Q + Q939E (UniProt Q14671)
T24 sequence: T1 sequence with A109Q, V112E

[25] = biological target: T25, PUM1 PUF domain R3-RQG C935R + R936Q + Q939G (UniProt Q14671)
T25 sequence: T1 sequence with A109Q, V112G

[26] = biological target: T26, PUM1 PUF domain R3-RQL C935R + R936Q + Q939L (UniProt Q14671)
T26 sequence: T1 sequence with A109Q, V112L

[27] = biological target: T27, PUM1 PUF domain R3-RQS C935R + R936Q + Q939S (UniProt Q14671)
T27 sequence: T1 sequence with A109Q, V112S

[28] = biological target: T28, PUM1 PUF domain R3-RQV C935R + R936Q + Q939V (UniProt Q14671)
T28 sequence: T1 sequence with A109Q

[29] = biological target: T29, PUM1 PUF domain R3-RQW C935R + R936Q + Q939W (UniProt Q14671)
T29 sequence: T1 sequence with A109Q, V112W

Sequence “GGCUAGAACUAGUGGAUCCCCCGGCGCCCGGCGGCUCGAGCCCGGGUAAGUGUAACUAGUCUGCAUGCCGCCGGGCGCCAUGCCUGCAGGUCGACUCUAGAAAACAUG” has a binding signal (log2 enrichment (interaction score)) [1] of under -8.68, a binding signal (log2 enrichment (interaction score)) [2] of under -10.3 and a binding signal (log2 enrichment (interaction score)) [3] of under -7.57. The binding signal (log2 enrichment (interaction score)) [4] was under -6.88, the binding signal (log2 enrichment (interaction score)) [5] was under -6.29 and the binding signal (log2 enrichment (interaction score)) [6] was under -8.29. For the same sequence, the binding signal (log2 enrichment (interaction score)) [7] was under -8.75, the binding signal (log2 enrichment (interaction score)) [8] was under -9.29 and the binding signal (log2 enrichment (interaction score)) [9] was -5.32. For the same sequence, the binding signal (log2 enrichment (interaction score)) [10] was -4.97, the binding signal (log2 enrichment (interaction score)) [11] was -6.09 and the binding signal (log2 enrichment (interaction score)) [12] was -3.76. It also gave a binding signal (log2 enrichment (interaction score)) [13] of -4.5, a binding signal (log2 enrichment (interaction score)) [14] of under -8.68 and a binding signal (log2 enrichment (interaction score)) [15] of under -7.96. It also gave a binding signal (log2 enrichment (interaction score)) [16] of under -8.33, a binding signal (log2 enrichment (interaction score)) [17] of under -6.8 and a binding signal (log2 enrichment (interaction score)) [18] of under -8.26. The binding signal (log2 enrichment (interaction score)) [19] was -3.11, the binding signal (log2 enrichment (interaction score)) [20] was under -9.59 and the binding signal (log2 enrichment (interaction score)) [21] was under -8.21. The binding signal (log2 enrichment (interaction score)) [22] was under -9.6, the binding signal (log2 enrichment (interaction score)) [23] was under -8.3 and the binding signal (log2 enrichment (interaction score)) [24] was under -7.16. For the same sequence, the binding signal (log2 enrichment (interaction score)) [25] was -5.19, the binding signal (log2 enrichment (interaction score)) [26] was under -8.64 and the binding signal (log2 enrichment (interaction score)) [27] was under -8.94. The binding signal (log2 enrichment (interaction score)) [28] was under -7.58 and the binding signal (log2 enrichment (interaction score)) [29] was under -7.32.
